Conjugation yield data for one substance are collected here from patent US20100196282A1 (priority 2007, published 2010).

The series can be described thus: general procedure: Fmoc solid-phase peptide synthesis; Rink Amide Novagel; HBTU. Particulars: conjugation step.

In turn, “Ac-Ala-Gly-Ser-Cys-Tyr-Cys-Ser-Gly-Pro-Pro-Arg-Phe-Glu-Cys-Trp-Cys-Tyr-Glu-Thr-GlU-Gly-Thr-Gly-Gly-Gly-Lys-NH2” came in with a conjugation yield of 44%.
